Assay: general procedure: solution-phase peptide synthesis; DEPC/DIEA; HATU/DIEA
Conditions: conjugation step, trifluoroacetic acid

With “methyl ((2R,3R)-3-((S)-1-((3R,4S,5S)-4-((S)-2-((S)-2-((4-(6-(2,5-dioxo-2,5-dihydro-1H-pyrrol-1-yl)-N-methylhexanamido)phenethyl)(methyl)amino)-3-methylbutanamido)-N,3-dimethylbutanamido)-3-methoxy-5-methylheptanoyl)pyrrolidin-2-yl)-3-methoxy-2-methylpropanoyl)-L-phenylalaninate 2,2,2-trifluoroacetate” the conjugation yield was 16%.

Source: patent US10633448B2 (PIERRE FABRE MEDICAMENT, priority 2014, dated 2020)
